The test has as its system Salmonella enterica serovar Typhimurium SL1344. Briefly: bacterial growth OD600 after 18 h with compound and polymyxin B; higher = more bacterial growth (less inhibition). The note with it: 50 µM, Mueller-Hinton broth.

We go through 21 compounds from the supplement of paper PMC12889115.

The other results are listed elsewhere or left out. These are raw signals, not scaled to a control.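 In the initial screen, polymyxin B was used at a concentration that permeabilizes Salmonella's outer membrane but not its inner membrane. Maximum growth was set by DMSO wells with or without polymyxin B. Since plates varied, data were ranked per plate, and compounds giving the lowest OD600 advanced as hits.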

Take `O=C(NCCn1cccn1)c1coc(COc2cccc(F)c2)n1`: the “bacterial growth OD600” value (polymyxin B 0.75 µg/mL) came to 0.859.

Take `O=C(CCc1ccc2c(c1)OCO2)N1CCOc2ccc(CN3CCc4ccccc4C3)cc2C1`: the “bacterial growth OD600” value (polymyxin B 0.75 µg/mL) was 0.803.

For the compound `CCOC(=O)C1(Cc2ccc(F)cc2)CCCN(C(=O)c2cccc(OC)c2)C1` (stereo unspecified), the “bacterial growth OD600” value (polymyxin B 1 µg/mL) amounted to 0.631.

`Cc1ccc(Oc2ncccc2CNC(=O)[C@H]2C[C@@H]3C=C[C@H]2C3)cn1`: the “bacterial growth OD600” value (polymyxin B 1 µg/mL) was found to be 0.893.

Turning to `O=C(NCc1cccnc1)c1ccc(N2CCC(NCC(c3ccccc3)c3ccccc3)CC2)cc1`, the “bacterial growth OD600” value (polymyxin B 0.75 µg/mL) was determined as 0.717.

`COc1ccc(OCc2nc(C(=O)N(C)Cc3nc(C)cs3)co2)cc1`: where the note is “polymyxin B 1 µg/mL”, the “bacterial growth OD600” value was determined as 0.899.

For `C=CCC(O)(CC=C)C(C)NC(=O)CCC1(Cc2cc(OC)ccc2F)CCC(=O)N1` (stereo unspecified), the “bacterial growth OD600” value (polymyxin B 0.75 µg/mL) turned out to be 0.851.

As to `CN(Cc1ccccc1Cl)C(=O)c1coc(COc2ccc3c(c2)OCO3)n1`, the “bacterial growth OD600” value (polymyxin B 1 µg/mL) worked out at 0.649.

Regarding `CCc1ccc(CN(C)c2nncc(-c3cc4ccccc4o3)n2)nc1`, under “polymyxin B 1 µg/mL”, the “bacterial growth OD600” value amounted to 0.007.

Turning to `O=C(/C=C/c1ccco1)N1CC[C@@H](N2CCN(c3ccccc3F)CC2)[C@H](O)C1`, for the setting “polymyxin B 1 µg/mL”, the “bacterial growth OD600” value is 0.827.

As to `CN(CCn1ccnc1)C(=O)CC(c1ccccc1)c1ccccc1Cl` (stereo unspecified), the “bacterial growth OD600” value (polymyxin B 1 µg/mL) came out at 0.855.

In the case of `Cc1cc(CN(C)C(=O)c2cc(Cn3c(C)nc4ccccc43)[nH]n2)on1`, the “bacterial growth OD600” value (polymyxin B 1 µg/mL) is 1.05.

Regarding `CSCCCNC(=O)C1CCC(=O)N(Cc2ccccn2)C1` (stereo unspecified), under “polymyxin B 1 µg/mL”, the “bacterial growth OD600” value was found to be 0.85.

`CC(=O)N1CCN(c2ccc(-c3nc(CCCc4ccccc4)no3)cn2)CC1`: the “bacterial growth OD600” value (polymyxin B 0.75 µg/mL) was 0.229.

As for `Cc1[nH]c2ccc(CNC3CCN(Cc4ccccn4)CC3)cc2c1C`, the “bacterial growth OD600” value (polymyxin B 0.75 µg/mL) came to 0.96.

Consider `CCOC(=O)C1(CCCc2ccccc2)CCCN(C(=O)c2cc(C)nc(C)n2)C1` (stereo unspecified), for which the “bacterial growth OD600” value (polymyxin B 1 µg/mL) amounted to 1.09.

For the compound `O=C(NCCc1ccco1)c1ccc2nc(C3CCCCC3)oc2c1`, for the setting “polymyxin B 0.75 µg/mL”, the “bacterial growth OD600” value stood at 0.664.

For `O=C(NC1CCCC1)c1ccc(N2CCC(NCc3cnn(-c4ccccc4)n3)CC2)cc1`, the “bacterial growth OD600” value (polymyxin B 0.75 µg/mL) amounted to 0.01.

In the case of `O=S(=O)(NCC1CCCN(Cc2cc[nH]n2)C1)c1cccc2cccnc12` (stereo unspecified), the “bacterial growth OD600” value (polymyxin B 0.75 µg/mL) came to 1.01.

Consider `Cc1c(C(=O)NCc2ccc(N3CCOCC3)cc2)oc2c(F)cccc12`, for which the “bacterial growth OD600” value (polymyxin B 0.75 µg/mL) is 0.064.

As for `CCN(Cc1ccc(COC)o1)CC1CCCN(CCc2cccc(F)c2)C1` (stereo unspecified), the “bacterial growth OD600” value (polymyxin B 1 µg/mL) was found to be 0.874.
